Laboratory results: article PMC7961486
Results are given in words; binding and its absence hold for the method and conditions named. Binding seen in cells or lysates may run through a third protein. Some results given as binding are weak or reduced against the parent protein; the word gives no strength.

By UniProt entry, the sequences of proteins in these tests, tags left out. Where a name states a change or a piece, a line headed by the entry shows the natural chain unless it says otherwise.
UniProt Q9BSQ5: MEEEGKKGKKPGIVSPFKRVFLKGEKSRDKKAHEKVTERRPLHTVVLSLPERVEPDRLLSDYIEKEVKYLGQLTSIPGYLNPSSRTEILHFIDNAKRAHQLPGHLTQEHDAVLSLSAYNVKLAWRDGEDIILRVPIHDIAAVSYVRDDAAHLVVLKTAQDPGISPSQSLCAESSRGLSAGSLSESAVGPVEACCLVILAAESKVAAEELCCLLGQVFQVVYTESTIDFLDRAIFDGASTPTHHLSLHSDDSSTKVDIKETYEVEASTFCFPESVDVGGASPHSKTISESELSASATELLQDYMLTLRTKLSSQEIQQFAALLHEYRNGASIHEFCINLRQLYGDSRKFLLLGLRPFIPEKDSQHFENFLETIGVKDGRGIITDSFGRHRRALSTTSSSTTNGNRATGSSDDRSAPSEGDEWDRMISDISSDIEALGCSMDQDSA
UniProt P17844: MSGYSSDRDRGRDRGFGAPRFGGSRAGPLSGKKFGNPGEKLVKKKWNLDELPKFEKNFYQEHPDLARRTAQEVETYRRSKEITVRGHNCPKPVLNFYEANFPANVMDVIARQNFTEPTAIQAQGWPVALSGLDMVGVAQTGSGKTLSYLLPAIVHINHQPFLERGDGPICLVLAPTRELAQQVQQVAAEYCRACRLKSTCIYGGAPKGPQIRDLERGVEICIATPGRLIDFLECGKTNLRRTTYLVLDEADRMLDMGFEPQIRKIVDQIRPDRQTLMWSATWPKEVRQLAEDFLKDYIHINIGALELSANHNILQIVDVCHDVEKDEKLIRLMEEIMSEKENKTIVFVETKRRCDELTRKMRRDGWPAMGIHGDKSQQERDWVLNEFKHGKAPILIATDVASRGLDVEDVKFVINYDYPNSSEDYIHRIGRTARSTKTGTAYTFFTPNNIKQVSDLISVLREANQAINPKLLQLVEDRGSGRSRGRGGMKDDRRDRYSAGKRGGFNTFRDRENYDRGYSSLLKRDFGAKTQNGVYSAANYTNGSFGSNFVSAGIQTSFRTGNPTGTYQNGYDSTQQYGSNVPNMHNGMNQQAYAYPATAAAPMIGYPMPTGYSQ
UniProt O00522: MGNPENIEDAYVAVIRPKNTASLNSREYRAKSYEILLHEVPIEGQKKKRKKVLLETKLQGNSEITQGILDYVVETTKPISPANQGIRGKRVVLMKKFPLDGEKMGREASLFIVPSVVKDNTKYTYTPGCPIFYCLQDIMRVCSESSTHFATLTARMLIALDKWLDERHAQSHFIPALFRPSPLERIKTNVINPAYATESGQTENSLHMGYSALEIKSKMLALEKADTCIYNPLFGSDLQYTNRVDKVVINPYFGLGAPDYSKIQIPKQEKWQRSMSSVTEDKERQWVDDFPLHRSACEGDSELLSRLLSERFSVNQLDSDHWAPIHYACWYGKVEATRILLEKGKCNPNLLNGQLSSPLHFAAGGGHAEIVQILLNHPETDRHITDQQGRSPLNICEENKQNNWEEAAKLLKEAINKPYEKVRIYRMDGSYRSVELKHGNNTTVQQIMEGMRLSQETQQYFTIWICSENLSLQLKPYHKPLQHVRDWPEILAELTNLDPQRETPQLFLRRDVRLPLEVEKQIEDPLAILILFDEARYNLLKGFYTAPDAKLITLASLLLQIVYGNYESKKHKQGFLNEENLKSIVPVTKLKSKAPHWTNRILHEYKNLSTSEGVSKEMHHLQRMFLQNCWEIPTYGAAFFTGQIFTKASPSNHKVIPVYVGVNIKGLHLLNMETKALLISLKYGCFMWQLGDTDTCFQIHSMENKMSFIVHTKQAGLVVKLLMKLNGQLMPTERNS

Legend:
[1] = target: Flag-tagged WT CCM2 (UniProt Q9BSQ5); assay: co-IP; PC3 lysates; Flag-CCM2 (WT or L198R) immunoprecipitated with anti-Flag antibody on Protein G-agarose, beads washed three times with RIPA buffer at 4 °C; blot with anti-HA (HA-DDX5) or anti-CCM1 (endogenous CCM1); in some samples CCM1 was RNAi-silenced
[2] = target: DDX5, endogenous in U2OS cells (human (endogenous in U2OS)) (UniProt P17844); assay: co-IP; U2OS lysates with overexpressed Flag-CCM1; endogenous DDX5 immunoprecipitated with anti-DDX5 antibody on Protein G-agarose, beads washed three times with RIPA buffer at 4 °C; blot with anti-Flag
[3] = target: Flag-tagged L198R CCM2 (UniProt Q9BSQ5); assay: co-IP; PC3 lysates; Flag-CCM2 (WT or L198R) immunoprecipitated with anti-Flag antibody on Protein G-agarose, beads washed three times with RIPA buffer at 4 °C; blot with anti-HA (HA-DDX5) or anti-CCM1 (endogenous CCM1); in some samples CCM1 was RNAi-silenced

| binding [1] | binding [2] | binding [3] | Substance |
| --- | --- | --- | --- |
| binds |  |  | CCM1, endogenous in PC3 cells (from UniProt O00522 1-736) |
|  | binds |  | Flag-tagged CCM1 (cerebral cavernous malformation 1) (from UniProt O00522 1-736) |
| binds |  | binds | HA-tagged DDX5 (WT) (from UniProt P17844 1-614) |
